The values that follow come from patent US4098706A, “Lubricating agents for thermoplastic materials and process for preparing the same” (Sapchim-Fournier-Cimag, priority 1975, dated 1978).

Where “and” joins values, the source holds several entries; their conditions need not be identical. Equal entries are not always repeated. Where two headings read alike, the source gives them in different places.

Series [1] is described as follows: Dynamic thermostability of the resin on plastograph at 210° C, 60 r.p.m., 30 g. Conditions: for Minimal resistant torque: as internal lubricating agent, 1 part, 210° C.
Series [2] can be described thus: Sticking of the lubricated resin, mixer cylinders 210° C, 0.25 mm.
The nature of series [3]: Gelation of resin on plastograph at 150° C, 30 r.p.m., 25 g.
Setting [4] is: as external lubricating agent, 0.3 part, 210° C, 0.25mm.
Where [5] appears, read: as internal lubricating agent, 1 part, 210° C, 0.25 mm.
Setting [6] is: as external lubricating agent, 0.3 part, 150° C.
Setting [7] is: as internal lubricating agent, 1 part, 150° C.

With `CCCCCCCCCCCCCCCCCCCCCC(=O)OCC(C)OC(=O)CCCCCCCCCCCCCCCCCCCCC` (centres unmarked) [Compound 1, 1,2-propanediol dibehenate], the Minimal resistant torque in series [1] is on record as 1.060 m.kg. Also, the “Resistance time to sticking” value is 16 min in series [2] (setting [4]) and 21.5 min in series [2] (setting [5]). Further, the End of gelation in series [3] (setting [6]) turned out to be 210 s; in series [3] (setting [7]) it was 260 s. In addition, the Start of gelation in series [3] (setting [6]) was 50 s; in series [3] (setting [7]), 120 s.

Compound `CCCCCCCCCCCCCCCCCCCCCC(=O)OCCSCCOC(=O)CCCCCCCCCCCCCCCCCCCCC` [Compound 2, Thiodiglycol dibehenate] registered a Minimal resistant torque in series [1] of 1.070 m.kg. In series [2], the “Resistance time to sticking” value was 21 and 20. The End of gelation in series [3] was 180 s and 260 s.

As to `CCCCCCCCCCCCCCCCCCCCCC(=O)OCCOCCOC(=O)CCCCCCCCCCCCCCCCCCCCC` [Compound 3, Diethyleneglycol dibehenate], the Minimal resistant torque in series [1] was found to be 1.050 m.kg. Further, the “Resistance time to sticking” value in series [2] (setting [5]) amounted to 22 min. In series [3] (setting [7]), this compound registered an End of gelation of 270 s and a Start of gelation of 120 s.

In the case of `CCCCCCCCCCCCCCCCCCCCCC(=O)OCCOCCOCCOC(=O)CCCCCCCCCCCCCCCCCCCCC` [Compound 4, Triethyleneglycol dibehenate], in series [1], the Minimal resistant torque is reported as 1.070 m.kg. Moreover, the “Resistance time to sticking” value in series [2] (setting [5]) came out at 23 min. Further, in series [3] (setting [7]), the End of gelation was 265 s and the Start of gelation was 105 s.

As to `CCCCCCCCCCCCCCCCCCCCCC(=O)OCC(CC)(COC(=O)CCCCCCCCCCCCCCCCCCCCC)COC(=O)CCCCCCCCCCCCCCCCCCCCC` [Compound 5, Trimethylolpropane tribehenate], the Minimal resistant torque in series [1] was 1.060 m.kg. Moreover, in series [2] (setting [4]), the “Resistance time to sticking” value was found to be 15.5 min. In addition, in series [2] (setting [5]), the “Resistance time to sticking” value is 27 min; the “Sticking, observation” value was “stuck and decomposed”; the “Time of the observed blackening or sticking and decomposition” value is 27 min. In series [3] (setting [6]), this compound showed an End of gelation of 190 s and a Start of gelation of 45 s. In series [3] (setting [7]), the End of gelation stood at 380 s and the Start of gelation is 180 s.

With `CCCCCCCCCCCCCCCCCCCCCC(=O)OCCCCOC(=O)CCCCCCCCCCCCCCCCCCCCC` [Compound 7, 1,4-butanediol dibehenate], in series [1], the Minimal resistant torque came out at 1.070 m.kg. Besides, the “Resistance time to sticking” value in series [2] (setting [4]) is 17 min; in series [2] (setting [5]) it was 23 min. The End of gelation in series [3] (setting [6]) worked out at 210 s; in series [3] (setting [7]), 255 s. In addition, the Start of gelation worked out at 45 s in series [3] (setting [6]) and 120 s in series [3] (setting [7]).

The compound `CCCCCCCCCCCCCCCCCCCCCC(=O)OCC(COC(=O)CCCCCCCCCCCCCCCCCCCCC)OC(=O)CCCCCCCCCCCCCCCCCCCCC` [Compound 8, Glyceryl tribehenate] had a Minimal resistant torque in series [1] of 1.065 m.kg. Moreover, the “Resistance time to sticking” value in series [2] (setting [4]) turned out to be 13 min; in series [2] (setting [5]) it was 26 min; in series [2] (study E(a), 0.5 part, 210° C, 0.25mm), 11 min. In addition, the “Sticking, observation” value in series [2] (setting [5]) is given as “did not stick but the resin became black”. Moreover, the “Time of the observed blackening or sticking and decomposition” value in series [2] (setting [5]) is 26 min. The End of gelation was found to be 210 s in series [3] (setting [6]); 380 s in series [3] (setting [7]); 90 s in series [3] (study E(a), 0.5 part, 150° C). Also, the Start of gelation in series [3] (setting [6]) is 50 s; in series [3] (setting [7]), 180 s; in series [3] (study E(a), 0.5 part, 150° C), 20 s.

In turn, `CCCCCCCCCCCCCCCCCCCCCC(=O)OCC(COC(=O)CCCCCCCCCCCCCCCCCCCCC)(COC(=O)CCCCCCCCCCCCCCCCCCCCC)COC(=O)CCCCCCCCCCCCCCCCCCCCC` [Compound 9, Pentaerythrite tetrabehenate] displayed a Minimal resistant torque in series [1] of 1.065 m.kg. For the same compound, the “Resistance time to sticking” value in series [2] (setting [4]) was determined as 19 min. In addition, in series [2] (setting [5]), the “Resistance time to sticking” value amounted to 26 min; the “Sticking, observation” value is “stuck and decomposed”; the “Time of the observed blackening or sticking and decomposition” value was found to be 26 min. In series [3] (setting [6]), this compound showed an End of gelation of 200 s and a Start of gelation of 40 s. Moreover, in series [3] (setting [7]), the End of gelation is 585 s and the Start of gelation was found to be 360 s.

With `CCCCCCCCCCCCCCCCCCCCCC(=O)O` [calcium behenate], in series [2], the “Resistance time to sticking” value is 15.5 min. Moreover, in series [3], the End of gelation is 90 s and the Start of gelation stood at 15 s.

As for `CCCCCCCCCCCCCCCCCC(=O)O` [calcium stearate, reference compound], the “Resistance time to sticking” value in series [2] worked out at 15.5 min. In series [3], this compound gave an End of gelation of 70 s and a Start of gelation of 10 s.

“glyceryl trihydroxystearate [reference compound]” showed a Self-heating time in series [1] of 14 min.
